In paper PMC5503940:
No constants are given. Whether binding was seen depends on the method and setting.

By UniProt entry, the sequences of proteins in these tests, tags left out. Residues count along the entry.
UniProt Q99661, residues 216-598: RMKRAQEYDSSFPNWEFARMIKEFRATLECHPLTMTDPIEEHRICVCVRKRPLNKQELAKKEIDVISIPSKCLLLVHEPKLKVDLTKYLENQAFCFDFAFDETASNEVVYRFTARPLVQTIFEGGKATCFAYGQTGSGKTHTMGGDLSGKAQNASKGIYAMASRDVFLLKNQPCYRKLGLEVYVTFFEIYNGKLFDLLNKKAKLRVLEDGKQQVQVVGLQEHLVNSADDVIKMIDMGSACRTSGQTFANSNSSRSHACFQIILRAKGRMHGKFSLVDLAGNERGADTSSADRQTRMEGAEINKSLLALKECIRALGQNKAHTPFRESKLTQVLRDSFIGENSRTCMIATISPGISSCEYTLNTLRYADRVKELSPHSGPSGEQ

Biological target: Kif2C-(sN+M) (short neck+motor construct of human Kif2C/MCAK) (human) (UniProt Q99661)
Experiment: SEC; gel filtration of Kif2C-(sN+M) alone; conditions not given; both purified

Kif2C-(sN+M) (short neck+motor construct of human Kif2C/MCAK) (from UniProt Q99661 216-598) (domain or fragment)
binding: no binding
